The source of these data is paper PMC10357015.

Sequences of proteins named here, by UniProt entry; tags and fusion partners are left off. A change or cut given only in a name is not applied to a line headed by its entry. A line that says so, or that is headed by a name, gives the form on record, which may keep a tag or linker.
Myc-Tau^WT (P10636, form named): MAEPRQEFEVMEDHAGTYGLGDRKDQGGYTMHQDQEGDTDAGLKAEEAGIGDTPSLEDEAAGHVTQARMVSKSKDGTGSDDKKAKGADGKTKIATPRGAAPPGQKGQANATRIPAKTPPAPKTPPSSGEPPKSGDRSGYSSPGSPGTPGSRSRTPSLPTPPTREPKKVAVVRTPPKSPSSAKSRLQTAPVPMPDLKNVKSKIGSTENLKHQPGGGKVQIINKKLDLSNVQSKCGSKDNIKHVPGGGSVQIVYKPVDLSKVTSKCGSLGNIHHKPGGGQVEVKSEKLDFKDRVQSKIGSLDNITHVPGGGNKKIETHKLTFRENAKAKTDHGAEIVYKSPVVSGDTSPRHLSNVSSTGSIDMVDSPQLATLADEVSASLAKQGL

Results are given in words; binding and its absence hold for the method and conditions named. In cells and extracts the contact can be indirect.

The experiment addresses Myc-Tau^WT (human) (UniProt P10636). The experiment can be described thus: co-IP; Myc-Trap beads (Chromotek) on mitochondria isolated from HeLaGAL cells over-producing Myc-tagged proteins, gently lysed with 4.5 g GDN/g protein in IP buffer (0.1 M Tris-HCl, 0.15 M NaCl, phospholipids, protease inhibitors); overnight at 4°C; eluted proteins analysed by western blot.

B1: TOM40 (protein, UniProt O96008 1-361)
chain: MGNVLAASSPPAGPPPPPAPALVGLPPPPPSPPGFTLPPLGGSLGAGTSTSRSSERTPGAATASASGAAEDGACGCLPNPGTFEECHRKCKELFPIQMEGVKLTVNKGLSNHFQVNHTVALSTIGESNYHFGVTYVGTKQLSPTEAFPVLVGDMDNSGSLNAQVIHQLGPGLRSKMAIQTQQSKFVNWQVDGEYRGSDFTAAVTLGNPDVLVGSGILVAHYLQSITPCLALGGELVYHRRPGEEGTVMSLAGKYTLNNWLATVTLGQAGMHATYYHKASDQLQVGVEFEASTRMQDTSVSFGYQLDLPKANLLFKGSVDSNWIVGATLEKKLPPLPLTLALGAFLNHRKNKFQCGFGLTIG
Regarding B1, the binding entry is “no binding”.
